The odorant receptor screen of Mainland et al. (2015)
Where “and” joins values, the source holds several entries; their conditions need not be identical. Identical values can stand only once. This is one part of the list. Each value is one well over the wells without odorant, computed here; the data are noisy.

Columns and labels:
Test in all cases: odorant receptor activation (CRE luciferase / Renilla) (fold of no-odor wells); higher = more activation
Settings in all cases: 100 µM
OR5C1 clone 1425 = tested on: OR5C1 clone 1425
OR5D14 clone 1230 = tested on: OR5D14 clone 1230
OR5D18 N136D clone 1203 = tested on: OR5D18 N136D clone 1203
OR5F1 S294N clone 1148 = tested on: OR5F1 S294N clone 1148
[1] = tested on: OR5H1 I153L/T181I clone 1473
OR5H1 clone 1471 = tested on: OR5H1 clone 1471
[2] = tested on: OR5H14 G64R/Y189C clone 1472
[3] = tested on: OR5H2 E11Q/I225V/I281V clone 1466
OR5H2 clone 1055 = tested on: OR5H2 clone 1055
OR5H6 clone 1056 = tested on: OR5H6 clone 1056
OR5H6 clone 1470 = tested on: OR5H6 clone 1470
OR5I1 clone 1146 = tested on: OR5I1 clone 1146
OR5J2 clone 1241 = tested on: OR5J2 clone 1241
OR5K1 clone 1502 = tested on: OR5K1 clone 1502
OR5K2 clone 1068 = tested on: OR5K2 clone 1068
OR5K3 clone 1514 = tested on: OR5K3 clone 1514
OR5K4 I206V clone 1729 = tested on: OR5K4 I206V clone 1729
OR5L1 clone 1204 = tested on: OR5L1 clone 1204
OR5L1 clone 1383 = tested on: OR5L1 clone 1383
OR5L1 clone 1720 = tested on: OR5L1 clone 1720

Row | Structure (SMILES) | odorant receptor activation (OR5C1 clone 1425) | odorant receptor activation (OR5D14 clone 1230) | odorant receptor activation (OR5D18 N136D clone 1203) | odorant receptor activation (OR5F1 S294N clone 1148) | odorant receptor activation [1] | odorant receptor activation (OR5H1 clone 1471) | odorant receptor activation [2] | odorant receptor activation [3] | odorant receptor activation (OR5H2 clone 1055) | odorant receptor activation (OR5H6 clone 1056) | odorant receptor activation (OR5H6 clone 1470) | odorant receptor activation (OR5I1 clone 1146) | odorant receptor activation (OR5J2 clone 1241) | odorant receptor activation (OR5K1 clone 1502) | odorant receptor activation (OR5K2 clone 1068) | odorant receptor activation (OR5K3 clone 1514) | odorant receptor activation (OR5K4 I206V clone 1729) | odorant receptor activation (OR5L1 clone 1204) | odorant receptor activation (OR5L1 clone 1383) | odorant receptor activation (OR5L1 clone 1720)
1 | CCOc1cc(C=O)ccc1O [ethyl vanillin] | 1.2 and 1.1 | 1.25 | 1.22 and 1.2 | 1.25 and 1.27 | 1.07 and 2.51 and 0.929 | 0.972 and 2.07 and 1.25 | 1.45 and 1.28 and 1.26 | 1.25 and 2.32 and 1.19 | 1.11 and 1.02 | 1.16 and 1.17 | 1.11 and 2.26 and 1.02 | 1.37 and 1.17 | 0.934 | 1.31 and 2.58 and 1.47 | 1.48 and 1.04 | 1.58 and 1.97 and 1 | 0.492 | 1.6 and 1.09 | 0.926 and 1.34 | 0.573
2 | CCC(C)=O [2-butanone] | 0.792 | 0.892 | 0.8 | 1.14 | 0.944 | 0.994 | 1.13 | 1.05 | 2.56 | 3.44 | 1.1 | 1.19 | 0.849 | 1.04 | 5.01 | 0.857 | 0.969 | 0.75 | 0.774 | 1.07
3 | CCCCOC(C)=O [butyl acetate] | 0.496 | 1.25 | 0.756 | 0.94 | 0.801 | 1.02 | 0.86 | 0.957 | 1.46 | 1.06 | 0.925 | 0.992 | 1.05 | 1.01 | 1.05 | 1.03 | 1.14 | 0.825 | 0.167 | 0.654
4 | CS [methanethiol] | 1.27 | 0.932 | 0.977 | 0.88 | 0.725 | 0.917 | 0.923 | 1 | 1.09 | 0.921 | 0.673 | 0.83 | 0.841 | 0.933 | 0.995 | 0.747 | 0.826 | 0.998 | 1.08 | 0.613
